# Results deposited as PubChem BioAssay AID1259424 (University of Nebraska Medical Center, 2018)
# Test: 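Seek colon cancer survival genes behaving like KSR1, using a six-gene signature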 (primary screen)
# Cells: human HCT116 colon cancer cells
# Knock-down reagent: siRNA pool against human genes, 50 nM
# Detection: 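Six signature mRNAs by branched-DNA multiplex assay, scaled to two housekeeping genes and non-targeting median, log2; matched to mean KSR1 knockdown profile by Pearson correlation and euclidean distance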
# Reading the numbers: mean correlation with KSR1 profile and KSR1 correlation: higher = expression change more like KSR1 knockdown; mean distance from KSR1 profile: higher = expression change less like KSR1 knockdown
# The deposit covers about 14,000 reagents; shown is a part drawn at random. 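Higher correlation or smaller distance means closer resemblance to KSR1 loss; control wells, including KSR1 knockdowns, recur on many plates.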 The record does not give: the time to read-out.
gene,mean correlation with KSR1 profile,mean distance from KSR1 profile,"KSR1 correlation, replicate 1","KSR1 correlation, replicate 2","KSR1 correlation, replicate 3"
CANT1,0.264,3.91,0.178,0.356,0.187
MED28,0.129,2.71,-0.0299,0.124,-0.000845
HOXB2,0.127,2.83,-0.0387,0.447,0.165
FZD8,0.471,1.45,0.249,0.641,0.335
YWHAQ,-0.0814,2.68,0.216,0.0355,-0.445
HCFC1,0.249,1.91,-0.138,0.509,0.325
ECT2,-0.144,3.47,-0.0222,-0.238,-0.269
JMJD7-PLA2G4B,-0.424,2.75,-0.401,-0.57,-0.393
PGAP6,-0.0256,2.58,-0.114,0.0901,0.085
NBL1,-0.377,1.59,-0.338,-0.202,-0.399
FXR1,-0.191,1.84,-0.125,-0.178,-0.0892
AD7C-NTP (retired record),-0.445,2.83,-0.166,-0.406,-0.561
AHCTF1,-0.469,3.17,-0.514,-0.409,-0.559
TOB1,0.676,1.38,0.618,0.715,0.475
NOLC1,0.532,2.52,0.416,0.271,0.583
MCF2L2,-0.43,2.54,-0.24,-0.544,-0.263
TMEM14A,-0.648,2.34,-0.657,-0.654,-0.739
H4C2,-0.164,1.55,-0.433,-0.498,-0.146
EXOSC3,-0.579,2.72,-0.485,-0.258,-0.344
FGF14,0.58,2.19,0.567,0.573,0.573
CENPQ,0.135,2.47,0.272,-0.0324,0.229
CYP2C8,-0.133,2.57,-0.446,0.187,0.107
PSPH,-0.727,2.08,-0.608,-0.84,-0.684
PDCD2,-0.423,3.54,-0.588,-0.615,-0.252
FEM1C,0.00866,2,-0.14,0.219,0.0508
NDC80,-0.282,2.65,-0.208,-0.474,-0.535
MAFK,0.218,1.37,0.647,0.0416,0.105
BET1,0.578,1.22,0.628,0.606,0.302
SIRPA,-0.524,2.46,-0.395,-0.429,-0.41
ABCA4,-0.413,2.15,-0.605,-0.497,-0.269
DHRS12,0.678,1.33,0.734,0.754,0.585
CTSZ,-0.0726,2.49,-0.464,0.0343,0.443
INTS8,-0.329,6.27,-0.426,-0.297,-0.238
NDUFAF1,-0.746,1.83,-0.817,-0.478,-0.405

In a second layout: 5 of the entries above.
gene	mean correlation with KSR1 profile	mean distance from KSR1 profile	KSR1 correlation, replicate 1	KSR1 correlation, replicate 2	KSR1 correlation, replicate 3
NOLC1	0.532	2.52	0.416	0.271	0.583
MCF2L2	-0.43	2.54	-0.24	-0.544	-0.263
TMEM14A	-0.648	2.34	-0.657	-0.654	-0.739
H4C2	-0.164	1.55	-0.433	-0.498	-0.146
EXOSC3	-0.579	2.72	-0.485	-0.258	-0.344
